Values from PubChem BioAssay AID504808 (Drosophila RNAi Screening Center, 2011)

Test: 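Genes whose loss lifts activity of an E2F-responsive reporter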 (primary screen)
Cell system: Drosophila S2 cells
Reagent: long dsRNA against Drosophila genes
Measurement: 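Dual luciferase plate measurements; E2F-specific signal taken as firefly over Renilla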
Direction: E2F firefly: higher = more E2F reporter activity; Renilla normaliser: higher = more normaliser reporter signal
Call rule: 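Called active if the normalised E2F reporter went up by over 50%; the cutoff is arbitrary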
In all, the deposit lists about 21,000 reagents; this is a random part of those that have a named target and a result. In the full data, 18 (0.084%) got an active call. 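Raw counts without plate normalisation, one of two replicates; the ratio scores behind the calls were not deposited.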 A number with no mark means an inactive call. Reagent sequences are not shown. Not given: the amount of reagent, the time to read-out.

Axn (GeneID 43565) [SID104193912]: E2F firefly, rep 1 = 84143; Renilla normaliser, rep 1 = 832
hppy (GeneID 37203) [SID104186806]: E2F firefly, rep 1 = 1.52e5; Renilla normaliser, rep 1 = 5417
hppy (GeneID 37203) [SID104186807]: E2F firefly, rep 1 = 1.56e5; Renilla normaliser, rep 1 = 5188
hppy (GeneID 37203) [SID104186808]: E2F firefly, rep 1 = 1.64e5; Renilla normaliser, rep 1 = 4970
CG32409 (GeneID 318016) [SID104188572]: E2F firefly, rep 1 = 1.39e5; Renilla normaliser, rep 1 = 4125
Npc2d (GeneID 41232) [SID104194343]: E2F firefly, rep 1 = 1.29e5; Renilla normaliser, rep 1 = 5642
crn (GeneID 31208) [SID104197976]: E2F firefly, rep 1 = 72877; Renilla normaliser, rep 1 = 6439
crn (GeneID 31208) [SID104197977]: E2F firefly, rep 1 = 75012; Renilla normaliser, rep 1 = 5886
crn (GeneID 31208) [SID104198547]: E2F firefly, rep 1 = 1061; Renilla normaliser, rep 1 = 888
Abcd1 (GeneID 43772) [SID104196949]: E2F firefly, rep 1 = 1975; Renilla normaliser, rep 1 = 1128
Vha68-2 (GeneID 45012) [SID104182513]: E2F firefly, rep 1 = 99818; Renilla normaliser, rep 1 = 4601
CG13850 (GeneID 42630) [SID104194492]: E2F firefly, rep 1 = 69361; Renilla normaliser, rep 1 = 4223
